Results published in patent publication US20070010459A1, “Application of asiatic acid and its derivatives to treat pulmonary fibrosis” (priority 2005, published 2007).

System: pulmonary fibrosis induced by bleomycin in rat
Assay: Asiatic acid in bleomycin-induced pulmonary fibrosis rat model
Assay type: in vivo, SD male rats
Conditions: mean
Excerpt: The pulmonary fibrosis animal model was induced by bleomycin in rat according to the methods described by Lazo J S, Hoyt D G, Sebti S M, Pitt B R. in Pharmacol Ther. 1990: 47:347-58. In this article, praquat, bleomycin and amiodrone are three routinely used chemical agent to induce lung fibrosis is rodents, e.g. mice, rat and Chinese hamsters as well as primates, e.g. baboon and cynomolgous monkey etc. there are also reports describing using rabbit or dog as model animal for such study. Different groups were able to generate lung fibrosis in animal models through different administration routes. For example, 3 various pulmonary fibrosis animal models using Co^60 to radiate rat, bleomycin or CCl4 injection into abdominal cavity of mice or rat respectively were generated. […] Specifically, diffusive stromal lung fibrosis model induced by tracheal bleomycin dripping is the most commonly used animal model. The advantage of this method is that the model can be obtained with once bleomycin dripping without repeated venous or abdominal injections, therefore limiting the influences to other organs caused by systematic administrations. It also lowers the experimental cost. The development of pulmonary fibrosis from alveolitis can be observed in 4 weeks, which is very similar to the pulmonary fibrosis pathological development in human being.
1. Animal: SD male rats with weight raging between 200-250 g, purchased from SLAC.
3. Dosage: Asiatic acid, 3, 9, […], po for 28 days.
Male SD rats were lay down flat on operating table and anesthetize with 3% Secobarbital. The trachea was exposed after sterilization of cervical part with alcohol. The needle was then inserted into tracheal cartilage interspace. Bleomycin at 5 mg/kg was dipped in. Afterwards, the rats were reared to evenly distribute bleomycin in the lung. The trachea was then sutured. […] The regimen was initiated on the second day. Sham-operated and untreated group received saline. After 28 days of treatment, lung weight, hydroyproline content, pathological section and CT scan were measured or conducted.
After 28 days on asiatic acid, rats were sacrificed and dissected. The body and lung weight were measured respectively and used to calculate lung weigh coefficient.
After 28 days on Asiatic acid, hydroxyproline content in lung was measured. The results are as follows:
After 28 days on asiatic acid, lung CT scans were performed to each group of experimental rats.
After 28 days on asiatic acid, the rats were sacrificed and dissected. Both lungs were harvested. The specimen were embedded and fixed then subjected to HE staining. The focus of infection were observed under microscope with ⅓, ⅔ and 3/3 Vf*10 to conduct semi-quantative analysis.

C[C@H]1[C@H](C)CC[C@]2(C(=O)O)CC[C@]3(C)C(=CC[C@@H]4[C@@]5(C)C[C@@H](O)[C@H](O)[C@@](C)(CO)[C@@H]5CC[C@]43C)[C@H]12 [Asiatic acid, asiatic acid]
Body Weight (first experiment, asiatic acid high dose 27 mg/kg po 28 days): 334.00 g
Body Weight (first experiment, asiatic acid low dose 3 mg/kg po 28 days): 322.22 g
Body Weight (first experiment, asiatic acid medium dose 9 mg/kg po 28 days): 311.78 g
Body Weight (second experiment, asiatic acid high dose 27 mg/kg po 28 days): 349.08 g
Body Weight (second experiment, asiatic acid low dose 3 mg/kg po 28 days): 307.37 g
Body Weight (second experiment, asiatic acid medium dose 9 mg/kg po 28 days): 315.81 g
Body Weight (third experiment, asiatic acid high dose 27 mg/kg po 28 days): 334.00 g
Body Weight (third experiment, asiatic acid low dose 3 mg/kg po 28 days): 322.22 g
Body Weight (third experiment, asiatic acid medium dose 9 mg/kg po 28 days): 311.78 g

C[C@@H]1C[C@H]2[C@@H]3CCC4=CC(=O)C=C[C@]4(C)[C@@]3(F)[C@@H](O)C[C@]2(C)[C@@]1(O)C(=O)CO [Dexmethasone, Dexamethasone, reference compound]
Body Weight (first experiment, dexmethasone 0.6 mg/kg po 28 days): 269.40 g
Body Weight (second experiment, dexmethasone 0.6 mg/kg po 28 days): 253.77 g
Body Weight (third experiment, dexmethasone 0.6 mg/kg po 28 days): 269.40 g
